The list shows a part of the results.
Compound: CC1Cc2ccccc2N1C(=O)C1CCCN(C1)C(=O)CCl (mixture of isomers) [TRIM25 ligand 11 (diastereomer mixture)]
Assay: probe-labelled cysteine peptide fold change vs DMSO (competition) (log2 fold change); higher = less target engagement (more negative = stronger competition)
Details: THP-1, incubation time: 4 h
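Further: competitive chemoproteomic profiling in live THP-1 cells with an iodoacetamide desthiobiotin (IA-DTB) probe, comparing probe-labelled peptide intensities in compound-treated cells against DMSO-treated controls.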

Target	probe-labelled cysteine peptide fold change (10 µM)	probe-labelled cysteine peptide fold change (50 µM)
KANSL1_Q7Z3B3_664_LSQLDSCVHPVLAFPDDVPTSLHFQSMLK (UniProt Q7Z3B3)	0.0737	0.0775
KHSRP_Q92945_176_IQQDSGCK (UniProt Q92945)	-0.0168	0.161
ITPA_Q9BY32_57_CQEAVR (UniProt Q9BY32)	-0.00384	0.103
KIF13B_Q9NQT8_773_ECEEDNPVIR (UniProt Q9NQT8)	0.044	-0.0606
KIF1B_O60333_356_CNAVINEDPNAK (UniProt O60333)	-0.00143	-0.0966
ITPR1_Q14643_1531_VYHCNWLMPSQK (UniProt Q14643)	0.0297	0.213
KBTBD11_O94819_384_PSDQVFCYNPATDSWSAVRPLR (UniProt O94819)	0.201	0.0594
KIF14_Q15058_1418_AASVQEEFMDAVCDGVGLGMK (UniProt Q15058)	0.0728	0.116
KDM5C_P41229_376_CVMAECK (UniProt P41229)	-0.0487	0.00524
KIF13B_Q9NQT8_870_LVCMVK (UniProt Q9NQT8)	0.0557	0.216
ITSN2_Q9NZM3_907_AQALCSWTAK (UniProt Q9NZM3)	-0.0461	-0.0782
KAT5_Q92993_11_AEVGEIIEGCR (UniProt Q92993)	0.229	0.219
KCMF1_Q9P0J7_9+12_HEGVSCDACLK (UniProt Q9P0J7)	0.233	0.13
KIF15_Q9NS87_1335_QVECLAEENGK (UniProt Q9NS87)	-0.024	-0.194
KIAA0100_Q14667_1055_LVGTEQSGQPCSR (UniProt Q14667)	0.0196	-0.019
ITPR1_Q14643_530_LLQAPFTDCGDGPMLR (UniProt Q14643)	-0.0346	-0.31
KIF13B_Q9NQT8_773_DLYQEWKECEEDNPVIR (UniProt Q9NQT8)	-0.214	-0.101
KEAP1_Q14145_319_IFEELTLHKPTQVMPCR (UniProt Q14145)	0.0299	-0.0401
KIAA1109_Q2LD37_3091_CVAEVGSFEHNLTTDLLNHLVFVQK (UniProt Q2LD37)	0.118	0.0787
KIF15_Q9NS87_1062_ILSEDIERDMLCEDLAHATEQLNMLTEASK (UniProt Q9NS87)	-0.0139	-0.136
KDM2A_Q9Y2K7_477_CVPTGIEDEDALIADVK (UniProt Q9Y2K7)	-0.0307	-0.0701

Target	probe-labelled cysteine peptide fold change (10 µM)	probe-labelled cysteine peptide fold change (50 µM)
KIF11_P52732_43_ASAHSIVECDPVRK (UniProt P52732)	-0.00394	-0.1
ITPR1_Q14643_2277_AQPVLYWCAR (UniProt Q14643)	-0.022	0.0127
KDM2A_Q9Y2K7_429_TLAGDSSSDCSR (UniProt Q9Y2K7)	-0.151	-0.422
KAT6A_Q92794_773_LQLNLRPVDVDPECLR (UniProt Q92794)	0.176	0.231
KAT8_Q9H7Z6_442_KPPITVDSVCLK (UniProt Q9H7Z6)	-0.00352	0.376
ITSN2_Q9NZM3_1414+1429_ENSDRLEWIQAHVQCEGLAEQLIFNSLTNCLGPR (UniProt Q9NZM3)	0.239	0.0804
ITPR1_Q14643_1471_ACNNTSDR (UniProt Q14643)	0.436	0.496
ITPRID2_P28290_887_TLSTHSVPNISGATCSAFASPFGCPYSHR (UniProt P28290)	-0.0404	-0.408
KBTBD11_O94819_421_LLALDGHLYAVGGECLLSVER (UniProt O94819)	-0.0593	0.0685
JAK1_P23458_731_EGIDSECGPFIK (UniProt P23458)	-0.193	-0.156
KDM2A_Q9Y2K7_582_ACVQGECGVCHYCR (UniProt Q9Y2K7)	0.145	0.0604
KDM3B_Q7LBC6_1392_LLCLHDPSNK (UniProt Q7LBC6)	-0.0179	0.17
KBTBD11_O94819_257_DAAYCFMSDHYLEVLREPAVFGR (UniProt O94819)	-0.162	-0.0776
KAT5_Q92993_317_SYSQNLCLLAK (UniProt Q92993)	0.121	0.0863
JMY_Q8N9B5_547_CEELLLTAQLESIKR (UniProt Q8N9B5)	0.0243	0.0724
KIAA0391_O15091_367_TIESIQLSPEEYECLK (UniProt O15091)	0.105	-0.118
KHNYN_O15037_46_DCPDNPHIWLQLEGPK (UniProt O15037)	0.0475	-0.0573
KDELC1_Q6UW63_493_VEPQTEDDLFPCTCHR (UniProt Q6UW63)	0.196	0.143
KATNB1_Q9BVA0_499_GHDTMCVVLTSR (UniProt Q9BVA0)	0.192	0.15
KDM5C_P41229_825_NCLSEAEACVSR (UniProt P41229)	-0.191	0.21
KAT14_Q9H8E8_478_RLEACPGAVAMTPEAR (UniProt Q9H8E8)	0.0372	0.00248

Target	probe-labelled cysteine peptide fold change (10 µM)	probe-labelled cysteine peptide fold change (50 µM)
KHSRP_Q92945_296_VQQACEMVMDILR (UniProt Q92945)	0.125	-0.164
KBTBD11_O94819_99_ACPEEPAAPSPEPR (UniProt O94819)	-0.113	-0.0056
KDELC2_Q7Z4H8_497_DGMELVPQPEDSTAICQCHR (UniProt Q7Z4H8)	-0.244	-0.17
KAT6A_Q92794_508_CPSVIEFGK (UniProt Q92794)	0.143	0.0762
ITPR2_Q14571_1385_DRGDESGPLAYHITLVELLAACTEGK (UniProt Q14571)	0.292	0.164
KANK1_Q14678_589_SVEMCDK (UniProt Q14678)	-0.078	0.143
KARS_Q15046_456+463_LVGEFLEVTCINPTFICDHPQIMSPLAK (UniProt Q15046)	-0.0508	-0.0667
KDM3B_Q7LBC6_1386_EMVMGLNVLDPHTSHSWLCDGR (UniProt Q7LBC6)	-0.0411	-0.127
KDM1A_O60341_573_NGYSCVPVALAEGLDIK (UniProt O60341)	0.00798	-0.00582
KDM5A_P29375_1409_SCSQGSSTPR (UniProt P29375)	-0.12	-0.168
KIF1B_O60333_581_EEHCIFR (UniProt O60333)	-0.165	0.154
IVD_P26440_136_ASGAVGLSYGAHSNLCINQLVR (UniProt P26440)	0.0597	-0.151
KAT2B_Q92831_100_LGVYSACK (UniProt Q92831)	0.0443	0.107
KCMF1_Q9P0J7_54_HTTDHPMQCILTR (UniProt Q9P0J7)	-0.00917	-0.145
JOSD2_Q8TAC2_24_LELCAVHALNNVLQQQLFSQEAADEICKR (UniProt Q8TAC2)	-0.136	-0.0632
KDM3B_Q7LBC6_999_YILANVGDQFCQLVMSEK (UniProt Q7LBC6)	0.122	0.15
KBTBD11_O94819_537_QWSPCVAPLR (UniProt O94819)	0.0697	0.14
IVNS1ABP_Q9Y6Y0_387_TVECYNPHTDHWSFLAPMR (UniProt Q9Y6Y0)	0.0414	-0.182
KDM2A_Q9Y2K7_840_VLVQHCPAR (UniProt Q9Y2K7)	0.0297	-0.0491
KATNBL1_Q9H079_106_ENELACAGHLPEK (UniProt Q9H079)	-0.0749	-0.279
KARS_Q15046_463_LVGEFLEVTCINPTFICDHPQIMSPLAK (UniProt Q15046)	0.0115	-0.0242

6 entries from above, set out differently:
Target | probe-labelled cysteine peptide fold change (10 µM) | probe-labelled cysteine peptide fold change (50 µM)
KDM3B_Q7LBC6_1386_EMVMGLNVLDPHTSHSWLCDGR (UniProt Q7LBC6) | -0.0411 | -0.127
KDM1A_O60341_573_NGYSCVPVALAEGLDIK (UniProt O60341) | 0.00798 | -0.00582
KDM5A_P29375_1409_SCSQGSSTPR (UniProt P29375) | -0.12 | -0.168
KIF1B_O60333_581_EEHCIFR (UniProt O60333) | -0.165 | 0.154
IVD_P26440_136_ASGAVGLSYGAHSNLCINQLVR (UniProt P26440) | 0.0597 | -0.151
KAT2B_Q92831_100_LGVYSACK (UniProt Q92831) | 0.0443 | 0.107

(further entries)

Target	probe-labelled cysteine peptide fold change (10 µM)	probe-labelled cysteine peptide fold change (50 µM)
KANSL2_Q9H9L4_88_DGVSFCAEHVR (UniProt Q9H9L4)	0.00575	0.0136
ITPA_Q9BY32_33_FPCTLVAQK (UniProt Q9BY32)	0.156	0.306
KDM1A_O60341_665_VVLCFDR (UniProt O60341)	0.0729	0.282
KDM3B_Q7LBC6_937_EQEQDDSTVACR (UniProt Q7LBC6)	0.0635	0.3
KDM5A_P29375_709_LVCLYHPTDLCPCPMQK (UniProt P29375)	-0.0658	-0.042
KANK1_Q14678_907_ITGNYLGYTCK (UniProt Q14678)	0.02	0.141
ITPR1_Q14643_1394_MDENSPLMYHIHLVELLAVCTEGK (UniProt Q14643)	0.158	-0.269
KIF11_P52732_704_QCGNLTEDLK (UniProt P52732)	0.0757	0.0473
ITPK1_Q13572_391+403_LGCNAGVSPSFQQHCVASLATK (UniProt Q13572)	0.0751	-0.372
ITPR2_Q14571_2087_NAYNQGLECDHGDDEGGDDGVSPK (UniProt Q14571)	-0.0694	-0.0836
IVNS1ABP_Q9Y6Y0_32_SGQFCDVR (UniProt Q9Y6Y0)	0.0251	0.062
KIDINS220_Q9ULH0_747_CEVELMAR (UniProt Q9ULH0)	-0.0216	0.105
ITPR2_Q14571_1246_MNEVMNLAHTFLQNFCR (UniProt Q14571)	-0.141	-0.166
KDM3B_Q7LBC6_1470_VRDFWDGFEIICK (UniProt Q7LBC6)	-0.0683	-0.132
JMJD6_Q6NYC1_101_CGEDNDGYSVK (UniProt Q6NYC1)	-0.0119	-0.111
JUP_P14923_457_AGDKDDITEPAVCALR (UniProt P14923)	-0.0404	0.102
ITPK1_Q13572_156_NGLTFPFICK (UniProt Q13572)	-0.337	0.0508
KDM3A_Q9Y4C1_947_RPQGLTIKPSILGFDTPHYWLCDNR (UniProt Q9Y4C1)	-0.0913	-0.0656
KCTD3_Q9Y597_704_GATGECNISER (UniProt Q9Y597)	-0.0633	-0.15
KCTD18_Q6PI47_56_TDESGACVIDR (UniProt Q6PI47)	0.192	0.0972
JARID2_Q92833_206_TATNNASSSCQSTPR (UniProt Q92833)	0.192	0.258

Reference: the supplement of paper PMC12067093, “Discovery and optimisation of a covalent ligand for TRIM25 and its application to targeted protein ubiquitination” (Chemical Science, 2025)
